Results on four molecules are retold here after publication PMC12603192.

Experiment [1] has as its target T1, endogenous ALK5 (human (endogenous in A549)), P36897.
T1 chain: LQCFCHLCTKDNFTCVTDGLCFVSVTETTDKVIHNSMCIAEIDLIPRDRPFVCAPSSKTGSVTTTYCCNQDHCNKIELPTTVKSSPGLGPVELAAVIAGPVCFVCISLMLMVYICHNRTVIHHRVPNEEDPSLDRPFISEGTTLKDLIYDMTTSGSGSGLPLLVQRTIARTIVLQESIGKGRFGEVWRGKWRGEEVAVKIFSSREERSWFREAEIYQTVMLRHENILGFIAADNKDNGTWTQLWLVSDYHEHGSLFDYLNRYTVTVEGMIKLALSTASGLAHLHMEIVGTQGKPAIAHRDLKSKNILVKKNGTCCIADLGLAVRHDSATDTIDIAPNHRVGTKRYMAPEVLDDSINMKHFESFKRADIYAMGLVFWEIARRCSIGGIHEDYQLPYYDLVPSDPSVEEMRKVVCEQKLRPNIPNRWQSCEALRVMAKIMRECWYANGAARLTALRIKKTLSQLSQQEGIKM
As to the kind of experiment: proximity ligation; PLA of ALK5 with SMAD2/3 in mock- or MARCH2-depleted cells upon TGF-β treatment (Fig. S4C). Particulars: remark: other sources report otherwise.

The next experiment concerns the target T2, FLAG-MARCH2 (human) (UniProt Q9P0N8).
T2 sequence: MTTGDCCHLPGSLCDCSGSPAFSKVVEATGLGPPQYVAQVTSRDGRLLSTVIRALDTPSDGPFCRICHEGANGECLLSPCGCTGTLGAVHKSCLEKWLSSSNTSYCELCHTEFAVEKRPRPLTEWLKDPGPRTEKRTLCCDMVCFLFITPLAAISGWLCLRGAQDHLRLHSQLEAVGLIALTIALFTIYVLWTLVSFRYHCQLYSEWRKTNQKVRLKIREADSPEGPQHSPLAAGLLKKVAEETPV
The experiment in a line: co-IP; tagged proteins co-expressed (HEK293T for Fig. 2B); lysis in 1% NP-40, 20 mM Tris-HCl pH 7.6, 150 mM NaCl, 2 mM EDTA; magnetic beads overnight at 4 °C, five washes; immunoblot. Background: Immunoblotting shows a protein as a band on a membrane.

In experiment [2] the target is T3, HA-MARCH2 stably expressed in A549 cells (human) (UniProt Q9P0N8).
T3 sequence: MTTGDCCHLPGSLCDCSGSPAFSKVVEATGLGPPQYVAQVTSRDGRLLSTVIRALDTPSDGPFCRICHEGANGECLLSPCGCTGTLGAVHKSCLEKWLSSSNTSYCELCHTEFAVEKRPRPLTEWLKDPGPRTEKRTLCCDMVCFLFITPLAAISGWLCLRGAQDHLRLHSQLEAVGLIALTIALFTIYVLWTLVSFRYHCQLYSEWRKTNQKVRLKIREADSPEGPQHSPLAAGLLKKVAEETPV
The experiment in a line: proximity ligation; Duolink PLA in A549 cells stably expressing HA-MARCH2 and FLAG-ALK5, TGF-β for 1 h, with or without Dynasore (80 μM) and Pitstop 2 (30 μM); also in cells expressing GFP-Rab5.

The target of experiment [3] is T3, HA-MARCH2 stably expressed in A549 cells (human). As to the kind of experiment: co-IP; as a5, but cells not treated with TGF-β.
For experiment [4] the target is unchanged. The experiment in a line: co-IP; A549 cells stably expressing HA-MARCH2, treated with TGF-β for increasing times (peak at one hour); also after pre-treatment with Dynasore (80 μM) and Pitstop 2 (30 μM); HA-MARCH2 precipitated, blot with anti-ALK5.
For experiment [5] the target is unchanged. The experiment in a line: co-IP; endosomes isolated through FLAG-Rab5 on anti-FLAG magnetic agarose from A549 cells stably expressing FLAG-Rab5 and HA-MARCH2, eluted with 1% Triton X-100 lysis buffer, then co-IP of HA-MARCH2; blot with anti-ALK5; with or without TGF-β.

These are yes or no findings as the source states them, for the method shown. In cells and extracts the contact can be indirect. Some entries that bind do so weakly or less than the wild type. For part of these data: Where a sequence is shown, tags or fusion partners need not be part of it.

B1: SMAD3, P84022 1-425 (protein)
chain: MSSILPFTPPIVKRLLGWKKGEQNGQEEKWCEKAVKSLVKKLKKTGQLDELEKAITTQNVNTKCITIPRSLDGRLQVSHRKGLPHVIYCRLWRWPDLHSHHELRAMELCEFAFNMKKDEVCVNPYHYQRVETPVLPPVLVPRHTEIPAEFPPLDDYSHSIPENTNFPAGIEPQSNIPETPPPGYLSEDGETSDHQMNHSMDAGSPNLSPNPMSPAHNNLDLQPVTYCEPAFWCSISYYELNQRVGETFHASQPSMTVDGFTDPSNSERFCLGLLSNVNRNAAVELTRRHIGRGVRLYYIGGEVFAECLSDSAIFVQSPNCNQRYGWHPATVCKIPPGCNLKIFNNQEFAALLAQSVNQGFEAVYQLTRMCTIRMSFVKGWGAEYRRQTVTSTPCWIELHLNGPLQWLDKVLTQMGSPSIRCSSVS
As to B1, the binding result in experiment [1] was “binds”.

B2: HA-ALK5 (receptor, UniProt P36897 34-503)
chain: LQCFCHLCTKDNFTCVTDGLCFVSVTETTDKVIHNSMCIAEIDLIPRDRPFVCAPSSKTGSVTTTYCCNQDHCNKIELPTTVKSSPGLGPVELAAVIAGPVCFVCISLMLMVYICHNRTVIHHRVPNEEDPSLDRPFISEGTTLKDLIYDMTTSGSGSGLPLLVQRTIARTIVLQESIGKGRFGEVWRGKWRGEEVAVKIFSSREERSWFREAEIYQTVMLRHENILGFIAADNKDNGTWTQLWLVSDYHEHGSLFDYLNRYTVTVEGMIKLALSTASGLAHLHMEIVGTQGKPAIAHRDLKSKNILVKKNGTCCIADLGLAVRHDSATDTIDIAPNHRVGTKRYMAPEVLDDSINMKHFESFKRADIYAMGLVFWEIARRCSIGGIHEDYQLPYYDLVPSDPSVEEMRKVVCEQKLRPNIPNRWQSCEALRVMAKIMRECWYANGAARLTALRIKKTLSQLSQQEGIKM
On to B2, for which the binding result with FLAG-MARCH2 (human) is recorded as “binds”.

B3: FLAG-ALK5 stably expressed in A549 cells (receptor, UniProt P36897 34-503)
chain: LQCFCHLCTKDNFTCVTDGLCFVSVTETTDKVIHNSMCIAEIDLIPRDRPFVCAPSSKTGSVTTTYCCNQDHCNKIELPTTVKSSPGLGPVELAAVIAGPVCFVCISLMLMVYICHNRTVIHHRVPNEEDPSLDRPFISEGTTLKDLIYDMTTSGSGSGLPLLVQRTIARTIVLQESIGKGRFGEVWRGKWRGEEVAVKIFSSREERSWFREAEIYQTVMLRHENILGFIAADNKDNGTWTQLWLVSDYHEHGSLFDYLNRYTVTVEGMIKLALSTASGLAHLHMEIVGTQGKPAIAHRDLKSKNILVKKNGTCCIADLGLAVRHDSATDTIDIAPNHRVGTKRYMAPEVLDDSINMKHFESFKRADIYAMGLVFWEIARRCSIGGIHEDYQLPYYDLVPSDPSVEEMRKVVCEQKLRPNIPNRWQSCEALRVMAKIMRECWYANGAARLTALRIKKTLSQLSQQEGIKM
With B3, in experiment [2], the binding entry is given as “binds”.

B4: endogenous ALK5 (receptor, UniProt P36897 34-503)
chain: LQCFCHLCTKDNFTCVTDGLCFVSVTETTDKVIHNSMCIAEIDLIPRDRPFVCAPSSKTGSVTTTYCCNQDHCNKIELPTTVKSSPGLGPVELAAVIAGPVCFVCISLMLMVYICHNRTVIHHRVPNEEDPSLDRPFISEGTTLKDLIYDMTTSGSGSGLPLLVQRTIARTIVLQESIGKGRFGEVWRGKWRGEEVAVKIFSSREERSWFREAEIYQTVMLRHENILGFIAADNKDNGTWTQLWLVSDYHEHGSLFDYLNRYTVTVEGMIKLALSTASGLAHLHMEIVGTQGKPAIAHRDLKSKNILVKKNGTCCIADLGLAVRHDSATDTIDIAPNHRVGTKRYMAPEVLDDSINMKHFESFKRADIYAMGLVFWEIARRCSIGGIHEDYQLPYYDLVPSDPSVEEMRKVVCEQKLRPNIPNRWQSCEALRVMAKIMRECWYANGAARLTALRIKKTLSQLSQQEGIKM
As to B4, the binding result in experiment [3] is reported as “no binding (condition: cells without TGF-β treatment)”; in experiment [4], “binds”; in experiment [5] it was “binds”.
